The source of these data is PMC12730636.

Chains of the proteins cited; added tags and fusions are not shown.
UniProt Q04656: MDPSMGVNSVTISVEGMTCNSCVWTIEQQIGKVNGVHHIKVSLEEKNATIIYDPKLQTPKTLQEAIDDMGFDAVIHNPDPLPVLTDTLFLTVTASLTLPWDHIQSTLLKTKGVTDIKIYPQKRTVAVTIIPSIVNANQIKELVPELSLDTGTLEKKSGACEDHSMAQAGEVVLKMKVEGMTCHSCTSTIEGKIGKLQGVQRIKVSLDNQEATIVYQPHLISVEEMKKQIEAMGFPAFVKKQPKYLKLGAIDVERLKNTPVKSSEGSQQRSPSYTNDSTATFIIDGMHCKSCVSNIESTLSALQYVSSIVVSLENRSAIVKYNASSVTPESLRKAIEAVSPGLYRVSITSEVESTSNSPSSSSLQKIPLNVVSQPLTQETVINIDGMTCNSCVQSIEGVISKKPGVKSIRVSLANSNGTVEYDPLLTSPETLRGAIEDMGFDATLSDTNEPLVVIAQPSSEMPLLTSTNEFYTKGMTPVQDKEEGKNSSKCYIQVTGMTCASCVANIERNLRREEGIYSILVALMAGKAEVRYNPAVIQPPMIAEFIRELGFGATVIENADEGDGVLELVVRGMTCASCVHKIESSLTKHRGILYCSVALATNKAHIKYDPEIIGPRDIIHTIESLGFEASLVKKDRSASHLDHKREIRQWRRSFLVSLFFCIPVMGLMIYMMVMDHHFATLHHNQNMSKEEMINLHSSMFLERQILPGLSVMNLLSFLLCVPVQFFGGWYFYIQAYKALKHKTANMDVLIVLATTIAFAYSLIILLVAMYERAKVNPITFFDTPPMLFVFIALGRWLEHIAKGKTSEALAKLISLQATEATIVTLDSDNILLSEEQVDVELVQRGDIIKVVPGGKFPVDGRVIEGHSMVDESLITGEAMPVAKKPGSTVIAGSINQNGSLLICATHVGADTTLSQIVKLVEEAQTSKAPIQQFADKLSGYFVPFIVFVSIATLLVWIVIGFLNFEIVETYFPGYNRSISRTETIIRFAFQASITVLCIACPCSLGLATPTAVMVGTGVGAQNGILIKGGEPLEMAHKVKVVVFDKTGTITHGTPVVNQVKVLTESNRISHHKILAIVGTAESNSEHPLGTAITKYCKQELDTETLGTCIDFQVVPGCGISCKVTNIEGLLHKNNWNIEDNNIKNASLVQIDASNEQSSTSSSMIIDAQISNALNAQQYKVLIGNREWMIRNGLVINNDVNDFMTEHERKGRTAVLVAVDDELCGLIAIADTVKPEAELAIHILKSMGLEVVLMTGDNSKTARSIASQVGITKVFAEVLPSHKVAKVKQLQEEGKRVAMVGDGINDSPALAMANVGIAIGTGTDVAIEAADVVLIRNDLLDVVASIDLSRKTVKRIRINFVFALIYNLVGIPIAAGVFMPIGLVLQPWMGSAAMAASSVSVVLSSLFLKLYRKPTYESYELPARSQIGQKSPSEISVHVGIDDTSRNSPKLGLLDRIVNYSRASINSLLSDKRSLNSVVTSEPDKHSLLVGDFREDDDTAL

The target of this assay is ATPase copper transporting alpha (ATP7A) (UniProt Q04656). In words: co-IP; co-immunoprecipitation of TRIM14 and ATP7A; bait, antibody, cells and buffer not described; n = 3.

These are yes or no findings as the source states them, for the method shown. Binding seen in cells or lysates may run through a third protein. Some entries that bind do so weakly or less than the wild type.

B1: tripartite motif-containing protein 14 (TRIM14) (protein, UniProt Q14142 1-442)
chain: MAGAATGSRTPGRSELVEGCGWRCPEHGDRVAELFCRRCRRCVCALCPVLGAHRGHPVGLALEAAVHVQKLSQECLKQLAIKKQQHIDNITQIEDATEKLKANAESSKTWLKGKFTELRLLLDEEEALAKKFIDKNTQLTLQVYREQADSCREQLDIMNDLSNRVWSISQEPDPVQRLQAYTATEQEMQQQMSLGELCHPVPLSFEPVKSFFKGLVEAVESTLQTPLDIRLKESINCQLSDPSSTKPGTLLKTSPSPERSLLLKYARTPTLDPDTMHARLRLSADRLTVRCGLLGSLGPVPVLRFDALWQVLARDCFATGRHYWEVDVQEAGAGWWVGAAYASLRRRGASAAARLGCNRQSWCLKRYDLEYWAFHDGQRSRLRPRDDLDRLGVFLDYEAGVLAFYDVTGGMSHLHTFRATFQEPLYPALRLWEGAISIPRLP
Consider B1, for which the binding result is reported as “binds”.
